# In US5013721A, “Anorexigenic and hypotensive peptides” (Zambon Group S.P.A., priority 1988, dated 1991):
# At least one peptide structure holds a part that was inferred or is arguable (an end, a ring closure or a residue). Ends that are not written are not given here.
# Tests used:
# arterial pressure = experiment: Hypotensive activity in the rat (arterial pressure, sphygmomanometric sleeve on the tail, conscious animal); format: in vivo, male Wistar rats
# food ingestion [1] = experiment: Anorexigenic activity in the rat (food ingestion after subcutaneous injection, 48 h fasted); format: in vivo, male Wistar rats
# [2] = test system: arterial pressure of the femoral artery; experiment: Hypotensive activity in the monkey (arterial pressure of the femoral artery); format: in vivo, Macaca mulatta
# food ingestion [3] = experiment: Anorexigenic activity in the monkey (food ingestion during 8 hours after 24 hours fasting); format: in vivo, Macaca mulatta
substance,measurement,setting,value
"DLSLELLMIEKRLLDTI-NH2 [Peptide II, ASP--LEU--SER--LEU--GLU--LEU--LEU--MET--ILE--GLU--LYS----ARG--LEU--LEU--ASP--THR--ILE--NH2]",duration of hypotensive action,arterial pressure; 200 μg/kg dose,about 4 hours
same,maximum pressure decrease,arterial pressure; 200 μg/kg dose,60 mm Hg
same,doses at which the hypotensive action is evidenced,"arterial pressure; subcutaneous, conscious, 28° C.",0.015 to 0.02 mg/kg
same,duration of inhibitory action on food ingestion,food ingestion [1]; 10 μg/kg dose,more than 12 hours
same,peptide dose inhibiting by 50% the food ingestion,"food ingestion [1]; fasted 48 hours, food ingested in 12 hours after injection",5 μg/kg body weight
same,duration of hypotensive effect,[2],about 4 hours
same,pressure decrease,"[2]; 200 μg/kg dose, femoral artery",25 mm Hg
same,duration of anorexigenic effect,food ingestion [3],about 12 hours
same,dose inhibiting by 50% food ingestion,"food ingestion [3]; subcutaneous, fasted 24 hours, food ingested during 8 hours",0.02 mg/kg
